The results in this text go back to article PMC9981285.

The chains behind the UniProt entries cited, without tags or fusion partners.
UniProt P40763: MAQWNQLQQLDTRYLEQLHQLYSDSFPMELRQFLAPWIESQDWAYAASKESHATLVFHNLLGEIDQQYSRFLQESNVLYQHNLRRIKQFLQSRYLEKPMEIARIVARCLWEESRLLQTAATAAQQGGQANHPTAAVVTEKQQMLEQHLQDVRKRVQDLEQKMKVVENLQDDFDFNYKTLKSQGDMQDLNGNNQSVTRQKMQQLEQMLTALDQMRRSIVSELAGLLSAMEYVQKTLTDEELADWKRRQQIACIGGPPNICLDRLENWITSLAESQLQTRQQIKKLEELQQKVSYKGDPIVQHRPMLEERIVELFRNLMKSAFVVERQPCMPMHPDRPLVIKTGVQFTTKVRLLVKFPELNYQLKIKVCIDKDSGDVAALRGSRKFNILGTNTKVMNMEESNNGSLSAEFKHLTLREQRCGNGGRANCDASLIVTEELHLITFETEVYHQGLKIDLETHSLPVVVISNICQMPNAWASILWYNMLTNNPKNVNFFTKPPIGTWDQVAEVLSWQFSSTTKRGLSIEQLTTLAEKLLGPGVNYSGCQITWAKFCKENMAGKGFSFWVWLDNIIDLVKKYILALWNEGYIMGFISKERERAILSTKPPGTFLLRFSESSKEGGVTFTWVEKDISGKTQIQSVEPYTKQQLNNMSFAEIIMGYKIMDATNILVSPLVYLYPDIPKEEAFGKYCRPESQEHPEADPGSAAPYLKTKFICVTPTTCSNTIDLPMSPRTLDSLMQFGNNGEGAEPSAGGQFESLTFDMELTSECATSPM

This experiment concerns the target T1, 3 × FLAG-GINS2 (UniProt Q9Y248).
T1 sequence: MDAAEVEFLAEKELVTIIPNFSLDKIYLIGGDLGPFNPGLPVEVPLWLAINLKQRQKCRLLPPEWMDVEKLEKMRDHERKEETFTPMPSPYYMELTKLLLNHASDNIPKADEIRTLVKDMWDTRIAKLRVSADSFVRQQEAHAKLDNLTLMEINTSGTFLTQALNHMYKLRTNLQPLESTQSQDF
Kind of experiment: affinity purification with mass spectrometry; lysates (RIPA) of stable cells with empty vector (NC) or 3 × FLAG-GINS2 (OE); Co-IP with FLAG beads, SDS-PAGE, Coomassie staining, gel bands digested with trypsin, LC-MS.

No constants are given. Whether binding was seen depends on the method and setting. In cells and extracts the contact can be indirect. Here binding means that the protein was enriched with, or labelled near, the bait; the list need not be complete. Where a sequence is shown, tags or fusion partners need not be part of it.

With STAT3 (from UniProt P40763 1-770), the binding result was “binds”.
